Laboratory results reported in patent publication US20190177380, “SYNTHETIC MBNL PROTEINS FOR TREATMENT OF REPEAT EXPANSION DISEASE” (University of Florida Research Foundation, Incorporated, published 2019).
pKd: −log10 of the molar value. Protein sequences can lack the tags named with them. For some of these results: The exact form of at least one protein or probe is not confirmed. For some of these results: Whether high values mean tight binding is not given here for every scale.

What was measured:
[1] = test system: T1, MBNL1(3-4,3-4) (Homo sapiens); assay: SELEX; conditions: top 7mers; peak R at 1000 nM protein; purified recombinant protein
T1 sequence: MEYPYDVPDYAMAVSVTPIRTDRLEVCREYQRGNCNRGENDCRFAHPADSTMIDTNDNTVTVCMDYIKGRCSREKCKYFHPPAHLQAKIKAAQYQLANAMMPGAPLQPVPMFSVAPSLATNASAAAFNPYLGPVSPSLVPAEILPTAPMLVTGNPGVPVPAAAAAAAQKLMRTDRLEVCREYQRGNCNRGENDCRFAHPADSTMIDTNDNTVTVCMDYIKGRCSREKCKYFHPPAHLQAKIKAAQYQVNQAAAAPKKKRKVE

[2] = target: T2, WT-MBNL1 (truncated, aa 1-260 with HA tag and SV40 NLS) (Homo sapiens) (UniProt Q9NR56); assay: SELEX; conditions: purified recombinant protein; for selection result: RBNS top three 7mer
T2 sequence: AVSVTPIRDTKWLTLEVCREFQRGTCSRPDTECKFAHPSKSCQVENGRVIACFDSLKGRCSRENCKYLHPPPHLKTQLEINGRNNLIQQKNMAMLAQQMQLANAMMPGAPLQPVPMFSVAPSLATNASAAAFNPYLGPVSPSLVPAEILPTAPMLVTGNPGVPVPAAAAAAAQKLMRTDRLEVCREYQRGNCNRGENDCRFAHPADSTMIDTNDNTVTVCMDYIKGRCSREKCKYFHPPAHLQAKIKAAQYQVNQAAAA

[3] = test system: T3, MBNL1(1-2,1-2) (Homo sapiens); assay: SELEX; conditions: purified recombinant protein; for selection result: RBNS top three 7mer
T3 sequence: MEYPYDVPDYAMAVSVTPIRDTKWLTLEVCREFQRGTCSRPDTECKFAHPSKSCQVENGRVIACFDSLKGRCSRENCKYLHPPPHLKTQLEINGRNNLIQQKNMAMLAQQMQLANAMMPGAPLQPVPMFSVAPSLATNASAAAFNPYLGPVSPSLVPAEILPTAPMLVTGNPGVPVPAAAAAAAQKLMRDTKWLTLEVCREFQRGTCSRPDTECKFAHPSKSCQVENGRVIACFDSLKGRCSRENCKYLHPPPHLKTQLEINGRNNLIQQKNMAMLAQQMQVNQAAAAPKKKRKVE

[4] = target: T2, WT-MBNL1 (truncated, aa 1-260 with HA tag and SV40 NLS) (Homo sapiens); assay: EMSA; conditions: no observable binding; 5 mM MgCl2; purified recombinant protein; label: 5'-32P; variant of CUG4
[5] = test system: T1, MBNL1(3-4,3-4) (Homo sapiens); assay: EMSA; conditions: no observable binding; 5 mM MgCl2; purified recombinant protein; label: 5'-32P; variant of CUG4
[6] = test system: T3, MBNL1(1-2,1-2) (Homo sapiens); assay: EMSA; conditions: no observable binding; 5 mM MgCl2; purified recombinant protein; label: 5'-32P; variant of CUG4

For CGCUGCU [RBNS 7mer CGCUGCU], which binding signal [1] is on record?
The binding signal was 3 RBNS R value.

With CGCUUGC [RBNS 7mer CGCUUGC] as the sequence, how does the selection result [2] read?
The selection result was “selected”.

What about the selection result [3] of the same sequence?
Its selection result is “selected”.

Which binding signal [1] does the source give for CUGCUGC [RBNS 7mer CUGCUGC] here?
The binding signal was 3 RBNS R value.

GCAGCAGUUCGCAGCAG [CAG4] was tested. Which pKd [4] did it give?
Its pKd is < 5.60.

And the pKd [5]?
The pKd was < 5.60.

And the pKd [6]?
Its pKd is < 5.60.

For GCGCUGC [RBNS 7mer GCGCUGC], which binding signal [1] is on record?
The binding signal was 3 RBNS R value.

How did the binding signal [1] turn out when GCUGCGC [RBNS 7mer GCUGCGC] was run?
The binding signal was 3 RBNS R value.

Which binding signal ([2]; top 7mer, peak R at 250 nM protein, R of 7 stated for top kmers generally) does the source give for GCUUGCU [RBNS 7mer GCUUGCU] here?
Its binding signal is 7 RBNS R value.

And the binding signal ([3]; among top three 7mers, peak R at 500 nM protein, R of 10 stated for top kmers generally)?
The binding signal was 10 RBNS R value.

With UGCUUGC [RBNS 7mer UGCUUGC] as the sequence, how does the selection result [2] read?
The selection result was “selected”.

And the selection result [3]?
The selection result was “selected”.
